Test results published in PubChem BioAssay AID330 (DTP/NCI, 2004).
The list is a part of this screen's results and no random one: it is rich in T/C values a quarter to a half above the control, in often repeated tests (any T/C) and in doses without a T/C. Further doses and runs are listed elsewhere. T/C: endpoint of the treated group in % of that of the vehicle group. Some entries give survivors of the animals treated and no T/C: the source holds a T/C of zero for them, seemingly a mark for toxic or unscored doses. Some survivor counts are full or nearly so, which does not show that the dose was tolerated: the source hardly ever lists a survival T/C far under the control, and the zero likely stands for such cases as well. Counts of survivors are from the toxicity check (mostly the fifth day) where no day follows; animals may have died later. Schedule codes are those of the source, read here as Q, the interval in days (D) or hours (H), X, the number of doses. Some entries hold several experiments; the values are given in rising order. For survival time, the PubChem record calls one and a half times the control and up active, and a quarter to a half above the control has no call in these data; cut-offs in other NCI protocols can differ. Some T/C values carry the count of animals alive at the toxicity check (mostly the fifth day); where none is given, no animal had died by that day.

Tested on: P388 leukemia ip, CD2F1 mice, survival T/C
Assay: NCI In Vivo Anticancer Drug Screen. Data for tumor model P388 Leukemia (intraperitoneal) in CD2F1 (CDF1) mice
Settings: T/C endpoint: median survival time, higher T/C = longer survival
[1] = dose: 12.5 mg/kg/injection, schedule: Q01DX009 (ip), vehicle: water
[2] = dose: 200.0 mg/kg/injection, schedule: Q01DX009 (ip), vehicle: water
[3] = dose: 120.0 mg/kg/injection, schedule: Q01DX005 (ip), vehicle: saline with Tween-80
[4] = dose: 240.0 mg/kg/injection, schedule: Q01DX005 (ip), vehicle: saline with Tween-80
[5] = dose: 200.0 mg/kg/injection, schedule: Q01DX005 (ip), vehicle: Klucel (hydroxypropylcellulose) (HPC)
[6] = dose: 6.25 mg/kg/injection, schedule: Q01DX009 (ip), vehicle: saline
[7] = dose: 12.5 mg/kg/injection, schedule: Q01DX009 (ip), vehicle: saline
[8] = dose: 50.0 mg/kg/injection, schedule: Q01DX009 (ip), vehicle: saline
[9] = dose: 100.0 mg/kg/injection, schedule: Q01DX009 (ip), vehicle: saline
[10] = dose: 200.0 mg/kg/injection, schedule: Q01DX009 (ip), vehicle: saline
[11] = dose: 50.0 mg/kg/injection, schedule: Q01DX009 (ip), vehicle: Klucel (hydroxypropylcellulose) (HPC)
[12] = dose: 100.0 mg/kg/injection, schedule: Q01DX009 (ip), vehicle: Klucel (hydroxypropylcellulose) (HPC)
[13] = dose: 200.0 mg/kg/injection, schedule: Q01DX009 (ip), vehicle: Klucel (hydroxypropylcellulose) (HPC)
[14] = dose: 200.0 mg/kg/injection, schedule: Q01DX009 (ip), vehicle: saline with Tween-80
[15] = dose: 100.0 mg/kg/injection, schedule: Q01DX009 (ip), vehicle: saline with Tween-80
[16] = dose: 60.0 mg/kg/injection, schedule: Q01DX005 (ip), vehicle: saline with Tween-80
[17] = dose: 100.0 mg/kg/injection, schedule: Q04DX003 (ip), vehicle: saline with Tween-80
[18] = dose: 200.0 mg/kg/injection, schedule: Q04DX003 (ip), vehicle: saline with Tween-80
[19] = dose: 400.0 mg/kg/injection, schedule: Q04DX003 (ip), vehicle: saline with Tween-80

O=[N+]([O-])C(CO)(CO)CC(F)(F)F
survivor count (dose: 3.13 mg/kg/injection, schedule: Q04DX003 (ip), vehicle: saline): 6 of 6
survivor count (dose: 12.5 mg/kg/injection, schedule: Q04DX003 (ip), vehicle: saline): 6 of 6

COc1cc2c(c(OC)c1OC)-c1ccc(SC)c(=O)cc1C(NC(=O)COP(=O)(O)OCC(=O)NC1CCc3cc(OC)c(OC)c(OC)c3-c3ccc(SC)c(=O)cc31)CC2 (stereo not drawn)
T/C (dose: 1.56 mg/kg/injection, schedule: Q01DX009 (ip), vehicle: water): 125 and 133 % of control
T/C (dose: 3.13 mg/kg/injection, schedule: Q01DX009 (ip), vehicle: water): 127, 129, 147 % of control
T/C (dose: 6.25 mg/kg/injection, schedule: Q01DX009 (ip), vehicle: water): 136 and 143 % of control
T/C [1]: 157 and 198 % of control
survivor count [1]: 6 of 6
survivor count (dose: 25.0 mg/kg/injection, schedule: Q01DX009 (ip), vehicle: water): 2 of 6 and 5 of 6
survivor count (dose: 50.0 mg/kg/injection, schedule: Q01DX009 (ip), vehicle: water): 0 of 6 and 1 of 6
survivor count (dose: 100.0 mg/kg/injection, schedule: Q01DX009 (ip), vehicle: water): 0 of 6
survivor count [2]: 0 of 6

COc1ccc(/C(O)=C/c2nc3cccc([N+](=O)[O-])c3[nH]c2=O)cc1
survivor count [3]: 6 of 6
survivor count [4]: 6 of 6

c1nc(N2CCCCC2)c2[nH]cnc2n1
survivor count [5]: 1 of 5

O=C1OC(CO)C(O)C2OC(=O)c3c(c(O)c(O)c(O)c3-c3c(O)c(O)c(O)c4c3C(=O)OC2C4O)-c2c1cc(O)c(O)c2O (stereo not drawn)
survivor count [6]: 4 of 6
survivor count [7]: 4 of 6
survivor count (dose: 25.0 mg/kg/injection, schedule: Q01DX009 (ip), vehicle: saline): 0 of 6
survivor count [8]: 0 of 6
survivor count [9]: 0 of 6
survivor count [10]: 0 of 6

N#CN
survivor count [10]: 6 of 6

CCC(CC)C[Se][Se]CC(CC)CC
survivor count [11]: 6 of 6
survivor count [12]: 6 of 6
survivor count [13]: 0 of 6

CC(C)NS(=O)(=O)OCC(O)(CC(Cl)(Cl)Cl)c1ccccc1 (stereo not drawn)
T/C [14]: 139 % of control

CC1C(=O)OC(C)(C)C1(C)C (stereo not drawn)
survivor count [15]: 0 of 6
survivor count [14]: 0 of 6
survivor count (dose: 400.0 mg/kg/injection, schedule: Q01DX009 (ip), vehicle: saline with Tween-80): 0 of 6

CCOC1OCN(C2CCCCC2)CC1(C)C (stereo not drawn)
T/C [15]: 137 % of control [5 of 6 alive]

Nc1nc(C[P+](c2ccccc2)(c2ccccc2)c2ccccc2)c(CCCCc2ccccc2)c(=O)[nH]1
survivor count (dose: 100.0 mg/kg/injection, schedule: Q01DX005 (ip), vehicle: Klucel (hydroxypropylcellulose) (HPC)): 2 of 6
survivor count [5]: 0 of 6

CCc1nc(N)nc(N)c1-c1ccc(NCCCCCCN)c([N+](=O)[O-])c1
T/C (dose: 30.0 mg/kg/injection, schedule: Q01DX005 (ip), vehicle: saline with Tween-80): 131 % of control
T/C [16]: 127 and 139 % of control
T/C [3]: 136 and 148 % of control
survivor count [4]: 0 of 6 and 1 of 6

O=P(N1CC1)(N1CC1)N1CC2CCC(CC2)C1
survivor count [8]: 6 of 6
survivor count [17]: 3 of 6
survivor count [18]: 1 of 6
survivor count [19]: 0 of 6

CC(C)(C)C1=CC(=CC=C2C=CN(CCO)C=C2)C=C(C(C)(C)C)C1=O
survivor count [16]: 0 of 6
survivor count [3]: 0 of 6
survivor count [4]: 0 of 6

CC(=O)OCC1OC(n2cnc3c(N)ncnc32)C2OC(C)(C)OC12 (stereo not drawn)
survivor count [5]: 3 of 6

Cc1ccc(S(=O)(=O)/N=[Se](\C)c2ccccc2)cc1 (stereo not drawn)
survivor count [6]: 5 of 6
survivor count [7]: 6 of 6
survivor count [9]: 1 of 6
survivor count [10]: 0 of 6

CC(O)CN(CCN(CC(C)O)CC(C)O)CC(C)O.[Cl-].[Co+2] (stereo not drawn)
survivor count [9]: 3 of 6
survivor count [10]: 0 of 6

CCCN=Cc1ccccc1O.CCCN=Cc1ccccc1O.[Cu]
survivor count (dose: 120.0 mg/kg/injection, schedule: Q01DX005 (ip), vehicle: Klucel (hydroxypropylcellulose) (HPC)): 2 of 6
survivor count (dose: 240.0 mg/kg/injection, schedule: Q01DX005 (ip), vehicle: Klucel (hydroxypropylcellulose) (HPC)): 0 of 6

C=C1C(=O)OC2C3CCC2C1C3 (stereo not drawn)
survivor count [17]: 0 of 6
survivor count [18]: 0 of 6
survivor count [19]: 0 of 6

CCC1(CC)C(=O)NC(=O)[N]([Sn]([CH3])([CH3])[N]2C(=O)NC(=O)C(CC)(CC)C2=O)C1=O
survivor count [5]: 0 of 6

CC(C)(C)c1cc2c(c(C(C)(C)C)c1)[O][Sb]([c]1ccccc1)([c]1ccccc1)([c]1ccccc1)[NH]2
survivor count [14]: 6 of 6

O=c1[nH]c2ccccc2nc1N=Nc1ccccc1
survivor count (dose: 200.0 mg/kg/injection, schedule: Q01DX005 (ip), vehicle: saline with Tween-80): 2 of 6

COC(=O)c1nc(N)nc(C(=O)OC)c1C(=O)C(C)(C)C
survivor count [4]: 0 of 6

CCSC(=Nc1nc2ccc(NC(C)=O)cc2s1)SCC
survivor count [11]: 6 of 6
survivor count [12]: 6 of 6
survivor count [13]: 3 of 6

Brc1cccc[n+]1Cc1cc2ccccc2c2ccccc12
survivor count (dose: 100.0 mg/kg/injection, schedule: Q04DX002 (ip), vehicle: Klucel (hydroxypropylcellulose) (HPC)): 5 of 5
survivor count (dose: 200.0 mg/kg/injection, schedule: Q04DX002 (ip), vehicle: Klucel (hydroxypropylcellulose) (HPC)): 5 of 5
survivor count (dose: 400.0 mg/kg/injection, schedule: Q04DX002 (ip), vehicle: Klucel (hydroxypropylcellulose) (HPC)): 0 of 5

C[n+]1c2ccccc2nc2c(N)cc(N)cc21
T/C (dose: 31.25 mg/kg/injection, schedule: Q01DX009 (ip), vehicle: saline): 127 % of control [4 of 6 alive]
T/C (dose: 62.5 mg/kg/injection, schedule: Q01DX009 (ip), vehicle: saline): 140 % of control
T/C (dose: 62.5 mg/kg/injection, schedule: Q04DX003 (ip), vehicle: saline sonified): 127 % of control
survivor count (dose: 125.0 mg/kg/injection, schedule: Q01DX009 (ip), vehicle: saline): 5 of 6
T/C (dose: 125.0 mg/kg/injection, schedule: Q04DX003 (ip), vehicle: saline sonified): 140 % of control

CCC1(O)C(=O)OCc2c1cc1n(c2=O)Cc2cc3cc4c(cc3nc2-1)OCO4 (stereo not drawn)
survivor count (dose: 4.0 mg/kg/injection, schedule: Q01DX005 (ip), vehicle: saline with Tween-80): 6 of 6
survivor count (dose: 8.0 mg/kg/injection, schedule: Q01DX005 (ip), vehicle: saline with Tween-80): 6 of 6
survivor count (dose: 16.0 mg/kg/injection, schedule: Q01DX005 (ip), vehicle: saline with Tween-80): 4 of 6

C=C1C(=O)OC2/C=C(\C)CC/C=C(/C=O)C(O)C(OC(=O)C(C)C)C12 (stereo not drawn)
T/C (dose: 10.0 mg/kg/injection, schedule: Q01DX009 (ip), vehicle: other): 144 % of control

CCCOC(=O)/C=C(\I)C(=O)OCCC
survivor count [15]: 2 of 6
survivor count [14]: 0 of 6

O=C1CC2CC(=O)C(S(=O)c3ccccc3)C2C1 (stereo not drawn)
survivor count [4]: 3 of 6

COc1ccc([N+]2=Cc3cc(OC)c(OC)cc3CC2)cc1OC
survivor count [2]: 5 of 6
survivor count (dose: 400.0 mg/kg/injection, schedule: Q01DX009 (ip), vehicle: water): 0 of 6
